Results from patent US20240148671A1, “METHODS FOR IMPROVING POULTRY HEALTH” (CORNELL UNIVERSITY, priority 2021, published 2024).
“Also recorded” adds a separate entry of the source. For at least one compound, name, drawing or mass did not settle the structure.

Key:
Format in all cases: in vivo, Gallus gallus
[1] = system: PMCA1b (plasma membrane Ca(2+)-ATPase isoform 1b); assay: Gene expression (RT-PCR), PMCA1b; conditions: at hatch; compared with the 5% inulin control group (p<0.05); no difference related to the other control groups (p>0.05)
TRPV6 = assay: Gene expression (RT-PCR), TRPV6; conditions: at hatch; b174: compared with the no injection and 18 MΩ H2O controls; b190: relative to the negative controls
[2] = Fe and Zn content in the serum and liver samples; conditions: b207, b216: comparator not stated, p<0.05
Procedure: (§1) The pure resveratrol and pterostilbene were individually diluted in 18 MΩ H2O. The intra-amniotic administration followed the methodology previously described. On the 17th day of embryonic development, the eggs with viable embryos (n=60) were randomly allocated into 6 groups (n=10) with a similar weight frequency distribution. For the intra-amniotic treatment, 1 mL of solution per egg was injected into the amniotic fluid (via candling) with the aid of a 21-gauge needle. After the procedure, the injection sites were sealed with cellophane tape, and the eggs were distributed into six groups: (1) no injection; (2) 18 MΩ H2O; (3) 5% inulin; (4) 5% resveratrol; (5) 5% pterostilbene; and (6) synergistic: 4.75% resveratrol and 0.25% pterostilbene. […] The eggs were equally distributed in each incubator location to reduce possible allocation bias. Upon hatching (21 days), the hatchlings were euthanized by CO2 exposure, and the blood, liver, heart, pectoral muscle, small intestine and cecum were obtained.
The serum (50 μL) and liver (0.5 g) samples were mixed with 3.0 mL of a 60:40 (v/v) solution of nitric acid (HNO3) and perchloric acid (HClO4) and incubated overnight. After this, the samples were heated for 2 hours at 120° C. and added to 0.25 mL of 40 μg/g yttrium (internal standard), and the block temperature was increased to 145° C. for 2 h and then 190° C. for 10 min. […]

[3] = system: NCX1 (Sodium-calcium exchanger 1); assay: Gene expression (RT-PCR), NCX1; conditions: at hatch; compared with the 5% inulin control group (p<0.05); no difference related to the other control groups (p>0.05)
TRPM6 = assay: Gene expression (RT-PCR), TRPM6; conditions: at hatch; compared with the 5% inulin control group (p<0.05); no difference related to the other control groups (p>0.05)
Δ-6-desaturase = assay: Gene expression (RT-PCR), Δ-6-desaturase; conditions: at hatch; compared with the 5% inulin control, p>0.05
IL-6 = assay: Gene expression (RT-PCR), IL-6; conditions: at hatch; b175: compared with the 5% inulin control, no difference vs no injection or 18 MΩ H2O; b192: comparator not stated
[4] = system: duodenal tissue (villi, crypts, goblet cells); assay: Morphometric examination of duodenal tissue; conditions: p<0.05
Procedure: as §1
Villus epithelium analysis was conducted as previously published. The duodenal samples were soaked in buffered formaldehyde (4% (v/v)), dehydrated, cleared and embedded in paraffin. Numerous sections were cut with a thickness of 5 μm and put on slides. The sections were deparaffinized in xylene, after which they were rehydrated in a series of graded alcohol. Finally, the slides were stained with Alcian Blue-periodic acid-Schiff and investigated under a light microscopy. The variables were assessed (light microscope, EPIX XCAP software, standard version, Olympus, Waltham, MA, USA) for the following: villus length, villus diameter, depth of crypts, goblet cell diameter, crypt goblet cell number and villus goblet cells type number (acidic, neutral or mixed). Four segments for each biological sample and five biological samples per treatment group were examined. The goblet cells were enumerated at 10 villi/sample, and the means were calculated for statistical analysis.

TNF-α = assay: Gene expression (RT-PCR), TNF-α; conditions: at hatch; b175, b210: compared with the 5% inulin control group; b192: comparator not stated; p<0.05
Procedure: (§2) The pure resveratrol and pterostilbene were individually diluted in 18 MΩ H2O. The intra-amniotic administration followed the methodology previously described. On the 17th day of embryonic development, the eggs with viable embryos (n=60) were randomly allocated into 6 groups (n=10) with a similar weight frequency distribution. For the intra-amniotic treatment, 1 mL of solution per egg was injected into the amniotic fluid (via candling) with the aid of a 21-gauge needle. […]
(§3) The RNA was isolated as described previously (RNeasy Mini Kit, Qiagen Inc., Valencia, CA, USA), and 30 mg of the duodenal tissue or liver tissue (n =8) was used to extract the total RNA. […] Finally, the RNA was eluted in 50 μL of RNase-free water and quantified by absorbance at 260 and 280 nm.
(§4) RT-PCR was conducted as described. […] The cDNA content was assessed by absorbance at 260 and 280 nm, with an extinction coefficient of 33 (single-stranded DNA). Genomic DNA contamination was evaluated via a real-time RT-PCR assay for the reference gene samples [17,18,30]. […]
(§5) The procedures were performed as previously published. […] The optimal MgCl2 concentration achieved, for each reaction, an amplification plot (lowest cycle product, Cp), the uppermost fluorescence intensity and the steepest amplification slope. […]

AP (Aminopeptidase) = assay: Gene expression (RT-PCR), AP; conditions: at hatch; b175: relative to the 18 MΩ M2O and 5% inulin control groups; b192: comparator not stated; p<0.05
Procedure: as §2, §3, §4, §5

cecal microbiome = assay: 16S rRNA gene sequencing of the cecal microbiota
Procedure: as §1
As was formerly described, cecal samples were used to extract microbial genomic DNA (PowerSoil DNA isolation kit, MoBio Laboratories Ltd., Carlsbad, CA, USA). […] The PCR products were purified (Beckman Coulter, Atlanta, GA, USA) and quantified (Quant-iT PicoGreen dsDNA quantitation kit, Invitrogen, Carlsbad, CA, USA). […]
The 16S rRNA gene sequence analysis was performed using QIIME2 as previously described. The sequence reads were demultiplexed by per-sample barcodes, and the Divisive Amplicon Denoising Algorithm (DADA2) was used to correct the Illumina-sequenced amplicon read errors. […] The alpha and β diversity were calculated from samples containing at least 9.800 sequences. The alpha diversity parameter, a measure of the richness of the bacterial community, was calculated using the Shannon Index, and the beta diversity was assessed by a Jaccard similarity distance matrix. […]
The values in this paper were expressed as means and standard errors of the means (SEM). […] The results were analyzed by Analysis of Variance (ANOVA). […]

IL-1β = assay: Gene expression (RT-PCR), IL-1β; conditions: at hatch; b175, b210: compared with the 5% inulin control group; b192: comparator not stated; p<0.05
Procedure: as §2, §3, §4, §5

hemoglobin (Hb) = assay: Blood hemoglobin (Hb) after intra-amniotic administration; conditions: synergistic vs the controls and other treatment groups (p<0.05); 5% resveratrol and 5% pterostilbene vs the control groups
Procedure: as §1
Blood was collected using micro-hematocrit heparin-coated capillary tubes (Fisher Scientific, Waltham, MA, USA). The hemoglobin (Hb) concentration was assessed spectrophotometrically using the QuantiChrom™ Hb Assay (DIHB-250, BioAssay Systems, Hayward, CA, USA) and according to specific instructions.

What does the source list for `COc1cc(/C=C/c2ccc(O)cc2)cc(OC)c1` [5% Pterostilbene, Pterostilbene]?
PMCA1b expression vs 5% inulin control [1]: upregulation; TRPV6 relative expression vs negative controls (TRPV6): Significant downregulation; Serum Zn (zinc) concentration, comparison between groups ([2]; b171: synergistic vs no injection, 5% pterostilbene vs control groups and 5% resveratrol group, b181: vs no-injection and 18 MΩ water controls): significantly greater; also recorded: increase; Serum Fe (iron) concentration, comparison between groups ([2]; b171: vs no injection group, b181: vs all controls): increase; NCX1 expression vs 5% inulin control [3]: upregulation; TRPM6 expression vs 5% inulin control (TRPM6): upregulation; α-6-desaturase gene expression vs 5% inulin control (Δ-6-desaturase): similar; IL-6 gene expression (IL-6): downregulated; Depth of the crypts, comparison with controls ([4]; relative to the 18 MΩ H2O and 5% inulin controls): higher; Amount of mixed villi goblet cells, comparison ([4]; relative to the controls): significantly higher; Duodenal villus diameter, comparison with controls ([4]; versus the controls): elevated; also recorded: significant increase; Duodenal villus length, comparison with controls ([4]; versus the controls): elevated; also recorded: significant increase; TNF-α gene expression (TNF-α): downregulated; AP relative expression (AP (Aminopeptidase)): downregulated; β diversity of the cecal microbiome (Jaccard distances), comparison between groups (cecal microbiome; cecal content at hatch, n=5, 5% inulin vs all other experimental groups (p<0.01), 5% pterostilbene vs 18 MΩ H2O control (p<0.05), stilbene groups among each other): lower; Most differentially enriched taxa (LEfSe) vs no injection control (cecal microbiome; cecal content at hatch, compared with the no injection control group, p<0.05 (FIGS. 5A-5B)): members of the Bacteroidetes phylum, such as the S24-7 family, members of the Clostridiales order and the Oscillospira genus; also recorded: Bacteroidetes predominated; also recorded: Clostridiales order was enriched; SCFA-producing bacteria (cecal microbiome; cecal microbiota at hatch): upregulation; IL-1β gene expression (IL-1β): downregulated; Hb concentration, comparison between groups (hemoglobin (Hb)): no difference
